Source: PubChem BioAssay AID493014 (National Center for Advancing Translational Sciences (NCATS), 2011)
Several values for one entry are separate records, joined by “and”; a condition that tells them apart may be missing. Equal entries are not always repeated. Some of the results follow. Further columns of the screen follow, without active or inactive calls. Compounds called inactive in the main read-out are mostly missing here. Words in brackets tell the shape of the fitted curve; partial curves, single points and poor fits give uncertain potencies.

Assay: qHTS Assay to Find Inhibitors of Chronic Active B-Cell Receptor Signaling
Details: ABC-DLBCL IkBa-CBG/CBR reporter, luminescence ratio (green luciferase fused to IkBa over red control in TMD8 lymphoma cells), 4 h
Procedure, shortened: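 Cell line TMD8 (human ABC DLBCL), stably expressing tet-inducible CBG68-IkBa fusion and CBR; IMDM/0.5% FBS; cpd up to 46 uM; dox induction, 4 h, 37C/5% CO2; dual luminescence; green/red ratio; MG132 control.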

[1] = measured here: CBR red luminescence, cell number
[2] = measured here: IkBa-CBG green luminescence

Compound | AC50 [1] | AC50 [2]
O=C(O)CCc1ccc(-c2ccc(Cl)cc2)n1NC(=O)c1ccc(O)cc1 | 12.6 µM [falling, single point] | 
CCC(=O)N1CCc2nc(-c3ccccc3)sc2C1 | 15.8 µM [rising, partial curve, poor fit] | 
O=C(C#Cc1ccccc1)c1ccco1 | 5.62 µM [rising, single point] | 6.31 µM [falling, single point]
CCCc1nnc(NC(=O)CCC(=O)N2CCC(Cc3ccccc3)CC2)s1 | 35.5 µM [rising, single point] | 
O=C1CCC/C1=C/Nc1ccc2c(c1)OCO2 | 20.6 µM [falling, single point] | 
COc1ccc(C(CCNC(C)c2ccccc2)C(C)C)cc1 (stereo not given) | 22.4 µM [falling, single point] | 
O=C(CN1CCN(c2cccc(Cl)c2)CC1)Nc1nccs1 |  | 15.8 µM [falling, partial curve, poor fit]
CCC(CC)c1nc(NCCC(=O)O)c2ccccc2n1 | 6.31 µM [rising, single point] | 
CC(NC(=O)Cn1nc(C(F)(F)F)c2c1CCC2)c1ccccc1 (stereo not given) | 0.0517 µM [falling, full curve, poor fit] | 
O=[N+]([O-])c1ccc(Nc2nc(NC3CCCCC3)nc(N3CCCC3)n2)cc1 | 2 µM [rising, partial curve, poor fit] | 
C/C=C/C=C\C(=O)Nc1cccc(C2=NOC3(C2)C[C@@H](C(N)=O)N(C(=O)c2cc([N+](=O)[O-])cc([N+](=O)[O-])c2)C3)c1 (stereo not given in full) | 10 µM [falling, partial curve] | 
Nc1ccc(N2CCOCC2)c(Cl)c1 | 14.6 µM [rising, partial curve, poor fit] | 
O=[N+]([O-])c1ccc(N=Cc2ccc(Br)c([N+](=O)[O-])c2)cc1 | 25.9 µM [falling, single point] | 20.6 µM [falling, single point]
Cc1ccccc1NC(=O)/C=C/c1cccc(C(F)(F)F)c1 | 10 µM [falling, partial curve, poor fit] | 
CN(C)c1oc(-c2ccc(OCc3ccccc3)cc2)nc1C#N | 2.59 µM [rising, full curve, poor fit] | 
COc1cc(C(CC(=O)Nc2ccc(Cl)cn2)N2Cc3ccccc3C2=O)cc(OC)c1OC (stereo not given) | 0.1 µM [rising, full curve, poor fit] | 
O=C(COC(=O)Cn1cnc2ccccc21)Nc1cccc2c1C(=O)c1ccccc1C2=O | 11.6 µM [falling, partial curve, poor fit] | 
CCc1ccc2oc(=O)cc(CN3CCCCC3)c2c1 | 3.55 µM [rising, single point] | 
NC1=Nc2cccc3cccc1c23 | 11.2 µM [falling, partial curve] | 
Cc1nn(Cc2cccc(C(=O)NC34CC5CC(CC(C5)C3)C4)c2)c(C)c1Br | 29.1 µM [falling, single point] | 
Cc1ccc(NC(=O)Cn2c(=O)oc3ccccc32)cc1Cl | 12.6 µM [falling, partial curve, poor fit] and 2.24 µM [falling, partial curve, poor fit] | 

Compound | AC50 [1] | AC50 [2]
CCn1c(=O)n(CC(=O)NC2CCCC(C)C2C)c(=O)c2ccccc21 (stereo not given) | 2.82 µM [falling, partial curve, poor fit] | 
CCN(N=Nc1cccc([N+](=O)[O-])c1)c1cccc([N+](=O)[O-])c1 | 0.326 µM [rising, full curve, poor fit] | 
CC(C)(C)OC(=O)[C@H](Cc1ccccc1)NC(=O)c1nc[nH]c1C(=O)NC1CCN(C(=O)OC(C)(C)C)CC1 | 35.5 µM [falling, single point] | 
O=C(c1cnn2c(C(F)F)cc(-c3ccccc3)nc12)N1CCCCC1c1cccnc1 (stereo not given) | 28.2 µM [rising, partial curve, poor fit] | 
CCOc1cccc(-c2nnc(SCC(=O)Nc3cc(C)ccc3OC)n2N)c1 | 35.5 µM [falling, single point] | 
CCCCC(=O)NC(=S)NNC(=O)c1ccc(Cl)cc1Cl | 14.1 µM [rising, single point] | 
COc1ccccc1-n1c([S-])c(C(=O)Nc2ccccc2C(F)(F)F)[n+]2ccc(C(=O)NCCO)cc12 | 8.91 µM [falling, partial curve, poor fit] | 
COc1ccc(C(=O)NCCCc2nc3ccccc3n2Cc2cc(C)ccc2C)cc1OC | 0.651 µM [rising, full curve, poor fit] | 
CCn1nc(C)c(CN2CCC(C(=O)Nc3cccc(-c4cccc(F)c4)c3)CC2)c1C | 22.4 µM [falling, single point] | 
O=C(CSc1nncn1-c1ccccc1)Nc1c(F)cccc1F | 35.5 µM [falling, single point] | 
Oc1ccccc1-c1n[nH]c(=S)n1Cc1ccccc1 | 2.82 µM [rising, partial curve, poor fit] | 
CCC1CCCCN1C(=O)COC(=O)c1n[nH]c2ccccc12 (stereo not given) | 16.4 µM [falling, partial curve, poor fit] | 
CCOC(=O)c1c(C)[nH]c(C)c1C(=O)CSc1nc2ccccc2c(=O)n1-c1ccccc1C | 3.66 µM [rising, single point] | 
COc1ccc(NC(=O)c2ccccc2NC(=O)C2CCCO2)cc1 (stereo not given) | 18.4 µM [falling, single point] | 
COc1ccc(C(=O)Nc2nc3ccc(S(C)(=O)=O)cc3s2)cc1OC | 7.94 µM [rising, partial curve] | 
COc1ccccc1-c1cc(C(=O)NCc2ccc(F)cc2)no1 | 5.62 µM [falling, full curve, poor fit] | 
COc1ccc(NN=Nc2ccc([N+](=O)[O-])cc2)cc1 | 1.26 µM [rising, full curve] | 
NC(=O)C(c1ccc(Cl)cc1)c1ccc(Sc2ccc(Cl)cc2)nn1 (stereo not given) | 18.4 µM [falling, partial curve, poor fit] | 
CC1=NN(c2cccc([N+](=O)[O-])c2)C(=O)C1 | 0.0891 µM [falling, full curve, poor fit] | 
Cc1occc1C(=O)N/N=C/c1ccc2c(c1)OCO2 | 3.55 µM [falling, partial curve] | 
COc1ccc(N2C(=O)CC(Nc3ccc(F)cc3)C2=O)c([N+](=O)[O-])c1 (stereo not given) | 35.5 µM [falling, single point] | 

Compound | AC50 [1] | AC50 [2]
COc1ccccc1CNCc1cc(Br)ccc1OC | 12.6 µM [falling, single point] | 
CCOC(=O)Cc1csc(NC(=O)/C=C/c2cccc(Br)c2)n1 | 8.91 µM [falling, partial curve, poor fit] | 
O=C(Nc1cccc(Cl)c1)c1cc(S(=O)(=O)NCCc2ccc(Cl)cc2)ccc1F | 29.1 µM [falling, single point] | 16.4 µM [rising, partial curve, poor fit]
c1ccc2c(c1)ccc1nnc(-c3ccc4c(c3)OCO4)n12 | 2.59 µM [rising, full curve] | 
O=C(O)C1CCCN(S(=O)(=O)c2ccc3c(c2)OCCO3)C1 (stereo not given) | 35.5 µM [rising, single point] | 
CCOC(=O)c1[nH]c(C)c(/C(O)=C2\C(=O)C(=O)N(CCN(C)C)C2c2cccc(OC)c2OC)c1C (stereo not given) | 10 µM [rising, partial curve, poor fit] | 
COc1ccc(Cl)cc1NC(=O)CN(C)C(=O)c1n[nH]c2ccccc12 | 23.1 µM [falling, single point] | 
Nc1ccc(C(=O)N/N=C/c2cn(Cc3cccc(F)c3)c3ccccc23)cc1 | 12.6 µM [falling, partial curve] | 
Cc1ccc(C(=O)NCCOc2cccc3cccnc23)cc1Cl | 2.82 µM [rising, full curve, poor fit] | 
CCOC(=O)C1CCCN(C(=O)c2cc(-c3ccccc3)on2)C1 (stereo not given) | 6.51 µM [rising, single point] | 
CCOc1ccc(OCC)c(NC(=O)CN(C)S(=O)(=O)c2cnc[nH]2)c1 | 5.62 µM [falling, single point] | 
COc1ccc(OC)c2sc(NC(=O)CCSc3ccccc3)nc12 | 0.58 µM [falling, full curve] | 
COc1ccccc1/C=C/C(=O)N1CCN(S(=O)(=O)c2cc(C)ccc2C)CC1 | 16.4 µM [falling, single point] | 
Cc1ccc(-n2c(O)c(/C=C3/C(c4ccccc4)=Nc4ccccc43)c(=O)[nH]c2=O)cc1 | 29.1 µM [falling, single point] | 
O=C(O)Cn1c(=O)cnc2ccccc21 | 29.1 µM [rising, single point] | 
CN(CC(=O)Nc1ccccc1Cl)C(=O)c1cccc(S(=O)(=O)N2CCN(c3ccc(F)cc3)CC2)c1 | 12.6 µM [rising, partial curve, poor fit] | 
Cc1onc(-c2ccccc2Cl)c1C(=O)Nc1nnc(-c2ccc(Br)cc2)s1 | 0.291 µM [falling, full curve] | 
CCOC(=O)c1cc(-c2ccccc2)n(CC(=O)Nc2ccc(OC)cc2OC)c1C | 0.398 µM [rising, full curve] | 
Cn1nnc2cc(NC(=O)Nc3cccc(Cl)c3)ccc21 | 0.891 µM [rising, full curve, poor fit] | 
NC(=O)c1ccc(N2CCN(c3ccccc3F)CC2)c([N+](=O)[O-])c1 | 6.31 µM [rising, full curve, poor fit] | 

An excerpt of these results, as tab-separated lines.
Compound	AC50 [1]	AC50 [2]
O=[N+]([O-])c1ccc(N=Cc2ccc(Br)c([N+](=O)[O-])c2)cc1	25.9 µM [falling, single point]	20.6 µM [falling, single point]
NC1=Nc2cccc3cccc1c23	11.2 µM [falling, partial curve]	
Cc1ccc(NC(=O)Cn2c(=O)oc3ccccc32)cc1Cl	12.6 µM [falling, partial curve, poor fit] and 2.24 µM [falling, partial curve, poor fit]	
O=C(c1cnn2c(C(F)F)cc(-c3ccccc3)nc12)N1CCCCC1c1cccnc1 (stereo not given)	28.2 µM [rising, partial curve, poor fit]	
CCOc1cccc(-c2nnc(SCC(=O)Nc3cc(C)ccc3OC)n2N)c1	35.5 µM [falling, single point]	
CCC1CCCCN1C(=O)COC(=O)c1n[nH]c2ccccc12 (stereo not given)	16.4 µM [falling, partial curve, poor fit]	
CCOC(=O)c1c(C)[nH]c(C)c1C(=O)CSc1nc2ccccc2c(=O)n1-c1ccccc1C	3.66 µM [rising, single point]	
CC1=NN(c2cccc([N+](=O)[O-])c2)C(=O)C1	0.0891 µM [falling, full curve, poor fit]	
Cc1ccc(C(=O)NCCOc2cccc3cccnc23)cc1Cl	2.82 µM [rising, full curve, poor fit]	
CCOC(=O)C1CCCN(C(=O)c2cc(-c3ccccc3)on2)C1 (stereo not given)	6.51 µM [rising, single point]	
Cc1ccc(-n2c(O)c(/C=C3/C(c4ccccc4)=Nc4ccccc43)c(=O)[nH]c2=O)cc1	29.1 µM [falling, single point]	
Cn1nnc2cc(NC(=O)Nc3cccc(Cl)c3)ccc21	0.891 µM [rising, full curve, poor fit]	
